For one molecule, binding results are on record in patent publication US20150104459A1.

Protein sequences, listed by entry. Tags and fused reporters are not part of them.
UniProt P06821: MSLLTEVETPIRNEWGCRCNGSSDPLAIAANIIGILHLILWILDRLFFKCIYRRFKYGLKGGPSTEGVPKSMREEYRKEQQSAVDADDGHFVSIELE

This experiment concerns the target M2 protein of A/Puerto Rico/8/34 (H1N1) on virus particles (influenza A virus A/Puerto Rico/8/34 (H1N1)) (UniProt P06821). The experiment can be described thus: surface plasmon resonance on influenza virus; numbers stand in Table 4. A general note: Surface plasmon resonance follows binding to a sensor surface in real time, without labels.

No constants are given. Whether binding was seen depends on the method and setting. Some results given as binding are weak or reduced against the parent protein; the word gives no strength.

B1: TCN-032 Fab fragment (Fab, V domains shown)
VH: QVQLQESGPGLVKPSETLSLTCTVSGSSISNYYWSWIRQSPGKGLEWIGFIYYGGNTKYNPSLKSRVTISQDTSKSQVSLTMSSVTAAESAVYFCARASCSGGYCILDYWGQGTLVTVS
VL: DIQMTQSPSSLSASVGDRVTITCRASQNIYKYLNWYQQRPGKAPKGLISAASGLQSGVPSRFSGSGSGTDFTLTITSLQPEDFATYYCQQSYSPPLTFGGGTRVEIK
Turning to B1, the binding result is “binds”.
